Measurements published in the supplement of paper PMC10331698.
± gives the standard deviation of the averaged measurements. Most values lie at the level of the controls, where differences are scatter.

How the values were obtained:
Experiment in all cases: level (log10 ratio to DMSO vehicle control); higher = higher biomarker level / cell amount than vehicle control
[1] = compound: FC(F)(F)C(F)(F)C(F)(F)C(F)(F)CCI [1H,1H,2H,2H-Perfluorohexyl iodide] (in DMSO); settings: 2200 nM
Protocol: (§1)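 BioMAP Diversity Plus panel of 12 human primary cell co-culture systems (3C, 4H, LPS, SAg, BT, BF4T, BE3C, CASM3C, HDF3CGF, KF3CT, MyoF, Mphg). Compounds were added 1 h before stimulation and left for 24 h (MyoF 48 h; BT 72 h for soluble read-outs or 6 d for IgG). Biomarkers were read by ELISA, cytotoxicity by SRB, PBMC viability and proliferation by Alamar Blue. Each well value was divided by the mean of 8 DMSO control wells on the same plate and log10 transformed; duplicate blinded samples were tested at 4 concentrations.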

[2] = compound: O=C(O)C(F)(F)C(F)(F)C(F)(F)C(=O)O [Hexafluoroglutaric acid] (in DMSO)
Protocol: as §1

[3] = compound: FC(F)(F)C(F)(F)CNCC(F)(F)C(F)(F)F [Bis(1H,1H-perfluoropropyl)amine] (in DMSO); settings: 2200 nM
Protocol: as §1

[4] = compound: OCC(F)(F)C(F)(F)C(F)(F)C(F)(F)C(F)(F)C(F)(F)F [6:1 Fluorotelomer alcohol] (in DMSO); settings: 2200 nM
Protocol: as §1

[5] = compound: FC(F)(F)COC(OCC(F)(F)F)OCC(F)(F)F [tris(Trifluoroethoxy)methane] (in DMSO); settings: 2200 nM
Protocol: as §1

[6] = compound: O=C(O)C(F)(OC(F)(F)C(F)(F)C(F)(F)F)C(F)(F)F [Ammonium perfluoro-2-methyl-3-oxahexanoate] (in Water)
Protocol: as §1

[7] = compound: OCCCC(F)(F)C(F)(F)C(F)(F)C(F)(F)C(F)(F)C(F)(F)C(F)(F)C(F)(F)F [3-(Perfluorooctyl)propanol] (in DMSO); settings: 2200 nM
Protocol: as §1

[8] = compound: O=C(O)C(F)(OC(F)(F)C(F)(OC(F)(F)C(F)(OC(F)(F)C(F)(F)C(F)(F)F)C(F)(F)F)C(F)(F)F)C(F)(F)F [Perfluoro-(2,5,8-trimethyl-3,6,9-trioxadodecanoic)acid] (in DMSO); settings: 370 nM
Protocol: as §1

[9] = compound: O=C(O)C(F)(F)C(F)(F)C(F)(F)OC(F)(C(F)(F)F)C(F)(F)F [Perfluoro-4-isopropoxybutanoic acid] (in DMSO); settings: 2200 nM
Protocol: as §1

[10] = compound: O=S(=O)(O)C(F)(F)C(F)(F)C(F)(F)C(F)(F)F [Perfluorobutanesulfonic acid] (in DMSO)
Protocol: as §1

[11] = compound: OCC(F)(F)C(F)(F)C(F)(F)C(F)(F)C(F)(F)C(F)(F)CO [1H,1H,8H,8H-Perfluorooctane-1,8-diol] (in DMSO); settings: 2200 nM
Protocol: as §1

[12] = compound: C=C(C)C(=O)OCCC(F)(F)C(F)(F)C(F)(F)C(F)(F)C(F)(F)C(F)(F)F [6:2 Fluorotelomer methacrylate] (in DMSO); settings: 2200 nM
Protocol: as §1

[13] = compound: OCC(F)(F)C(F)(F)C(F)(F)C(F)F [1H,1H,5H-Perfluoropentanol] (in DMSO); settings: 2200 nM
Protocol: as §1

[14] = compound: O=C(O)C(F)(F)C(F)(F)C(F)(F)C(F)(F)C(F)(F)F [Perfluorohexanoic acid] (in DMSO)
Protocol: as §1

[15] = compound: OCC(F)(F)OC(F)(F)C(F)(F)OC(F)(F)CO [1H,1H,8H,8H-Perfluoro-3,6-dioxaoctane-1,8-diol] (in DMSO); settings: 2200 nM
Protocol: as §1

[16] = compound: O=C(O)CCC(F)(F)C(F)(F)C(F)(F)F [3:3 Fluorotelomer carboxylic acid] (in DMSO); settings: 2200 nM
Protocol: as §1

[17] = compound: CNS(=O)(=O)C(F)(F)C(F)(F)C(F)(F)C(F)(F)C(F)(F)C(F)(F)C(F)(F)C(F)(F)F [N-Methylperfluorooctanesulfonamide] (in DMSO); settings: 2200 nM
Protocol: as §1

Test System | level (log10) [1] | level (log10) ([2]; 2200 nM) | level (log10) ([2]; 6700 nM) | level (log10) ([2]; 20000 nM) | level (log10) ([2]; 60000 nM) | level (log10) [3] | level (log10) [4] | level (log10) [5] | level (log10) ([6]; 2200 nM) | level (log10) ([6]; 6700 nM) | level (log10) ([6]; 20000 nM) | level (log10) ([6]; 60000 nM) | level (log10) [7] | level (log10) [8] | level (log10) [9] | level (log10) ([10]; 2200 nM) | level (log10) ([10]; 6700 nM) | level (log10) ([10]; 20000 nM) | level (log10) ([10]; 60000 nM) | level (log10) [11] | level (log10) [12] | level (log10) [13] | level (log10) ([14]; 2200 nM) | level (log10) ([14]; 6700 nM) | level (log10) ([14]; 20000 nM) | level (log10) ([14]; 60000 nM) | level (log10) [15] | level (log10) [16] | level (log10) [17]
3C:CXCL8/IL-8 | -0.007 ± 0.042 | -0.0065 ± 0.029 | -0.033 ± 0.0057 | -0.0185 ± 0.018 | 0.0015 ± 0.044 | 0.0405 ± 0.03 | 0.003 ± 0.073 | 0.019 ± 0.025 | 0.0575 ± 0.032 | 0.038 ± 0.037 | 0.0745 ± 0.029 | 0.131 ± 0.014 | 0.0155 ± 0.044 | 0.0085 ± 0.022 | 0.0185 ± 0.036 | -0.001 ± 0.0028 | 0.0045 ± 0.00071 | 0.008 ± 0.021 | 0.071 ± 0.04 | 0.032 ± 0.021 | 0.0205 ± 0.035 | 0.0455 ± 0.013 | -0.004 ± 0.013 | -0.006 ± 0.0042 | 0.005 ± 0.0057 | 0.0635 ± 0.037 | 0.029 ± 0.013 | -0.009 ± 0.016 | 0.0335 ± 0.046
3C:CXCL9/MIG | 0.0095 ± 0.00071 | 0.0035 ± 0.0064 | -0.014 ± 0.0085 | -0.005 ± 0.0042 | -0.0075 ± 0.0035 | 0.0005 ± 0.0021 | 0.0015 ± 0.021 | -0.0065 ± 0.0078 | 0 ± 0.0071 | -0.0085 ± 0.011 | -0.003 ± 0.0099 | -0.004 | 0.0005 ± 0.016 | 0.003 ± 0.018 | 0.006 | 0.002 ± 0.0028 | 0.009 ± 0.016 | 0.009 ± 0.017 | 0.0175 ± 0.0021 | 0.013 ± 0.0014 | 0.0015 ± 0.0035 | 0.0065 ± 0.0064 | -0.006 ± 0.018 | -0.0065 ± 0.012 | -0.0045 ± 0.00071 | 0.0025 ± 0.012 | -0.0035 ± 0.012 | -0.008 ± 0.011 | 0.0035 ± 0.013
3C:HLA-DR | 0.0035 ± 0.0064 | 0.035 ± 0.068 | 0.0225 ± 0.035 | 0.0315 ± 0.047 | 0.038 ± 0.042 | 0.0135 ± 0.0064 | 0.0055 ± 0.016 | -0.005 ± 0.025 | 0.007 ± 0.0028 | 0.0075 ± 0.011 | 0.0175 ± 0.028 | 0.016 ± 0.0014 | 0.0025 ± 0.035 | 0.009 ± 0.014 | 0.014 ± 0.025 | -0.0085 ± 0.0035 | -0.0015 ± 0.015 | -0.007 ± 0.0057 | -0.006 ± 0.013 | -0.008 ± 0.023 | 0.005 ± 0.0014 | 0.013 ± 0.0042 | 0.009 ± 0.021 | 0.002 ± 0.0042 | 0.004 ± 0.014 | -0.002 ± 0.0085 | -0.0025 ± 0.036 | -0.011 ± 0.011 | 0.0005 ± 0.023
3C:Proliferation | -0.0245 ± 0.019 | -0.0355 ± 0.066 | -0.0055 ± 0.0064 | -0.009 ± 0.068 | -0.0155 ± 0.054 | -0.0485 ± 0.06 | -0.007 ± 0.0071 | 0.001 ± 0.041 | -0.132 ± 0.051 | -0.0765 ± 0.015 | -0.136 ± 0.031 | -0.149 ± 0.023 | -0.02 ± 0.057 | 0.0145 ± 0.005 | -0.0505 ± 0.053 | -0.0135 ± 0.093 | -0.002 ± 0.0014 | 0.017 ± 0.031 | -0.0525 ± 0.023 | -0.073 ± 0.041 | -0.016 ± 0.052 | -0.0475 ± 0.011 | -0.001 ± 0.016 | -0.0055 ± 0.012 | -0.006 ± 0.0028 | -0.01 ± 0.04 | -0.061 ± 0.034 | 0.0015 ± 0.053 | -0.031 ± 0.054
